Measurements reported in publication PMC6179184, “Interaction of the Warsaw breakage syndrome DNA helicase DDX11 with the replication fork-protection factor Timeless promotes sister chromatid cohesion” (PLoS Genetics, 2018).
Numbering of substitutions follows the chain as printed. No constants are given. Whether binding was seen depends on the method and setting. In cells and extracts the contact can be indirect. Some results given as binding are weak or reduced against the parent protein; the word gives no strength. Tags and fused reporters may be left off the sequences shown.

Legend:
Assay in all cases: co-IP; whole cell extracts of HEK 293T cells transiently expressing DDX11-3xFlag (wild type or mutants), anti-Flag M2 agarose beads, 50 mM Tris-HCl pH 8.0, 150 mM NaCl, 0.25% Triton X-100, 10% glycerol, 2 hr at 4 C, elution with Flag peptide; Western blot of endogenous partners
[1] = target: T1, DDX11-3xFlag Q23A mutant (human) (UniProt Q96FC9)
T1 sequence: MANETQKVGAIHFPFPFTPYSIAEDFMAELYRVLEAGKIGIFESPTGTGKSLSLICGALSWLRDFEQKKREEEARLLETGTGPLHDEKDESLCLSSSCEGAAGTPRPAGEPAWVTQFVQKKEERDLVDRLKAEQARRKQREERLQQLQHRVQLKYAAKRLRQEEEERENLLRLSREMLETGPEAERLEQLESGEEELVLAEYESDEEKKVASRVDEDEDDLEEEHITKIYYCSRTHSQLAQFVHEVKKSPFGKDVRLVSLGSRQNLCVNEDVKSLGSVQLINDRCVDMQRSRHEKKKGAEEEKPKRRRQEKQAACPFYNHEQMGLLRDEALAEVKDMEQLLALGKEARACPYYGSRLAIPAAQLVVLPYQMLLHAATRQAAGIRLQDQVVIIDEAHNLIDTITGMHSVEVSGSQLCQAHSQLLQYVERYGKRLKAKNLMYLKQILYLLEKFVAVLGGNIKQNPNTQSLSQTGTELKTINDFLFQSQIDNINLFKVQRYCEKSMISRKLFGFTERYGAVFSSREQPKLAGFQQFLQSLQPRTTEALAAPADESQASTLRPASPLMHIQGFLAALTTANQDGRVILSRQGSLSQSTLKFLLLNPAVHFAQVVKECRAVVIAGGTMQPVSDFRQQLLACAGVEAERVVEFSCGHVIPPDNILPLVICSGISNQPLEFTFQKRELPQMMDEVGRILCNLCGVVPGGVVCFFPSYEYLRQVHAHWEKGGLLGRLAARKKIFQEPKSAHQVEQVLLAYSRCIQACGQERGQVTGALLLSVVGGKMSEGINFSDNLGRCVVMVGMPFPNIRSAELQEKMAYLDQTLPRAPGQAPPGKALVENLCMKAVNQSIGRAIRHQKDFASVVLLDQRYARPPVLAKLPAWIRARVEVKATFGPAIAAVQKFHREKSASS

[2] = target: T2, DDX11-3xFlag K50R mutant (human) (UniProt Q96FC9)
T2 sequence: T1 sequence with A23Q, K50R

[3] = target: T3, DDX11-3xFlag KAK mutant (human) (UniProt Q96FC9)
T3 sequence: T1 sequence with A23Q, E201K, Y202A, E203K

Measured: binding

B1: endogenous WDHD1 (HEK 293T) (protein, UniProt O75717 1-1129)
chain: MPATRKPMRYGHTEGHTEVCFDDSGSFIVTCGSDGDVRIWEDLDDDDPKFINVGEKAYSCALKSGKLVTAVSNNTIQVHTFPEGVPDGILTRFTTNANHVVFNGDGTKIAAGSSDFLVKIVDVMDSSQQKTFRGHDAPVLSLSFDPKDIFLASASCDGSVRVWQISDQTCAISWPLLQKCNDVINAKSICRLAWQPKSGKLLAIPVEKSVKLYRRESWSHQFDLSDNFISQTLNIVTWSPCGQYLAAGSINGLIIVWNVETKDCMERVKHEKGYAICGLAWHPTCGRISYTDAEGNLGLLENVCDPSGKTSSSKVSSRVEKDYNDLFDGDDMSNAGDFLNDNAVEIPSFSKGIINDDEDDEDLMMASGRPRQRSHILEDDENSVDISMLKTGSSLLKEEEEDGQEGSIHNLPLVTSQRPFYDGPMPTPRQKPFQSGSTPLHLTHRFMVWNSIGIIRCYNDEQDNAIDVEFHDTSIHHATHLSNTLNYTIADLSHEAILLACESTDELASKLHCLHFSSWDSSKEWIIDLPQNEDIEAICLGQGWAAAATSALLLRLFTIGGVQKEVFSLAGPVVSMAGHGEQLFIVYHRGTGFDGDQCLGVQLLELGKKKKQILHGDPLPLTRKSYLAWIGFSAEGTPCYVDSEGIVRMLNRGLGNTWTPICNTREHCKGKSDHYWVVGIHENPQQLRCIPCKGSRFPPTLPRPAVAILSFKLPYCQIATEKGQMEEQFWRSVIFHNHLDYLAKNGYEYEESTKNQATKEQQELLMKMLALSCKLEREFRCVELADLMTQNAVNLAIKYASRSRKLILAQKLSELAVEKAAELTATQVEEEEEEEDFRKKLNAGYSNTATEWSQPRFRNQVEEDAEDSGEADDEEKPEIHKPGQNSFSKSTNSSDVSAKSGAVTFSSQGRVNPFKVSASSKEPAMSMNSARSTNILDNMGKSSKKSTALSRTTNNEKSPIIKPLIPKPKPKQASAASYFQKRNSQTNKTEEVKEENLKNVLSETPAICPPQNTENQRPKTGFQMWLEENRSNILSDNPDFSDEADIIKEGMIRFRVLSTEERKVWANKAKGETASEGTEAKKRKRVVDESDETENQEEKAKENLNLSKKQKPLDFSTNQKLSAFAFKQE
binds: [1] | [2] | [3]

B2: endogenous Cdc45 (HEK 293T) (protein, UniProt O75419 1-566)
chain: MFVSDFRKEFYEVVQSQRVLLFVASDVDALCACKILQALFQCDHVQYTLVPVSGWQELETAFLEHKEQFHYFILINCGANVDLLDILQPDEDTIFFVCDTHRPVNVVNVYNDTQIKLLIKQDDDLEVPAYEDIFRDEEEDEEHSGNDSDGSEPSEKRTRLEEEIVEQTMRRRQRREWEARRRDILFDYEQYEYHGTSSAMVMFELAWMLSKDLNDMLWWAIVGLTDQWVQDKITQMKYVTDVGVLQRHVSRHNHRNEDEENTLSVDCTRISFEYDLRLVLYQHWSLHDSLCNTSYTAARFKLWSVHGQKRLQEFLADMGLPLKQVKQKFQAMDISLKENLREMIEESANKFGMKDMRVQTFSIHFGFKHKFLASDVVFATMSLMESPEKDGSGTDHFIQALDSLSRSNLDKLYHGLELAKKQLRATQQTIASCLCTNLVISQGPFLYCSLMEGTPDVMLFSRPASLSLLSKHLLKSFVCSTKNRRCKLLPLVMAAPLSMEHGTVTVVGIPPETDSSDRKNFFGRAFEKAAESTSSRMLHNHFDLSVIELKAEDRSKFLDALISLLS
binds: [1] | [2] | [3]
